According to patent US8557603B2 (FlySun Development Co. Ltd., priority 2009, dated 2013):

Assay: general procedure: Fmoc solid-phase peptide synthesis
Settings: whole synthesis, 220 nm

H-KATFGCHDGYSLDGPEEIECTKLGNWSAMPSCKASCKVPVKKATVVYQGERVKIQEK-OH (cysteine pairing not given here)
final HPLC purity: 95.23%
